From PMC8692159
These are yes or no findings as the source states them, for the method shown. Binding seen in cells or lysates may run through a third protein. Some binding calls cover weakened binding; strength is not graded here. For part of these data: Tags and fused reporters may be left off the sequences shown. Values belong to the substance of their own block, whether it stands above or below them.

Sequences of proteins named here, by UniProt entry; tags and fusion partners are left off.
UniProt Q9NXR7: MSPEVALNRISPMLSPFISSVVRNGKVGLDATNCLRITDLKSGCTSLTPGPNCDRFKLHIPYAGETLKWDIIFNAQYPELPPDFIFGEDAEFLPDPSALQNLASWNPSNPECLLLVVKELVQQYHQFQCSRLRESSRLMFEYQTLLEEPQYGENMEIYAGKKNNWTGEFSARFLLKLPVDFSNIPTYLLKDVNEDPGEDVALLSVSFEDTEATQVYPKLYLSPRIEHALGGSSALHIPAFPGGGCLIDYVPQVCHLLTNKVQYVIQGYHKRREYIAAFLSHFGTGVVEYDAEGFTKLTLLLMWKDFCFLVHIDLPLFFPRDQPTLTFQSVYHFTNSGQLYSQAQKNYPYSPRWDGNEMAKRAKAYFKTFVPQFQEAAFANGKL
UniProt Q00987: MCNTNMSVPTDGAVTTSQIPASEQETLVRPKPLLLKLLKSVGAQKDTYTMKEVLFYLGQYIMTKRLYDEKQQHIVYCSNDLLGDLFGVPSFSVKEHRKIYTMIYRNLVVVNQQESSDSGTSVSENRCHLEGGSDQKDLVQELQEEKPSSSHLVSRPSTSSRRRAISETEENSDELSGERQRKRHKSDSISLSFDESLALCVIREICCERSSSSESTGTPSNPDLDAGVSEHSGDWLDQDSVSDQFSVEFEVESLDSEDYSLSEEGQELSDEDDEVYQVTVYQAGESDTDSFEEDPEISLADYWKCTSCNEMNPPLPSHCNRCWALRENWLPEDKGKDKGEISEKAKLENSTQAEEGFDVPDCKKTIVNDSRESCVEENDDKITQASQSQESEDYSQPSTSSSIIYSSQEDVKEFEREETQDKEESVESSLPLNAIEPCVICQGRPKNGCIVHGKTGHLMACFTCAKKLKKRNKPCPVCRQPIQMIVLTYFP

What was measured:
[1] = molecular target: endogenously expressed BABAM2 (human (endogenous in A549)) (UniProt Q9NXR7); test: co-IP; endogenous MDM2 and BABAM2 in A549 cells; precipitating antibody not told
HA-BABAM2 = HA-BABAM2 (UniProt Q9NXR7); test: co-IP; exogenously expressed HA-BABAM2 and Flag-MDM2; cells and precipitating antibody not told
GST-PPDPF (human) = molecular target: T1, GST-PPDPF (human) (UniProt Q9H3Y8); test: pull-down; fusion protein GST-PPDPF with endogenously expressed BABAM2 of A549 cells; conditions not given; only the target purified
T1 sequence: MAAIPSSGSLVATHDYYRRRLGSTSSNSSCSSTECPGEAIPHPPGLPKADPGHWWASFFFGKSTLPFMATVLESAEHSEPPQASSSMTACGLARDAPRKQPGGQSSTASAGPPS

binding [1]: binds
Substance: endogenous MDM2 (from UniProt Q00987 1-491)

binding (HA-BABAM2): binds
Substance: Flag-MDM2 (from UniProt Q00987 1-491)

binding (GST-PPDPF (human)): binds
Substance: endogenously expressed BABAM2 (from UniProt Q9NXR7 1-383)
